Measured values: PubChem BioAssay AID590 (National Center for Advancing Translational Sciences (NCATS), 2007)
About 6,500 (11%) of roughly 59,000 compounds were called active. Inconclusive means that the source gave no clear call. Such entries were picked first, then a sample of the others. Rule as the data show it: active = max dye-equivalent concentration above about 10 nM; inconclusive = mostly about 1.1 nM to 9.6 nM; inactive = weaker than that.

Assay: qHTS Assay for Spectroscopic Profiling in A350 Spectral Region
Settings: Compound autofluorescence, 340/450 nm, Alexa 350 dye-equivalents; stronger effect = higher value

Row | SMILES | max dye-equivalent concentration
1 | COc1ccccc1-c1cncnc1NCc1cccs1 | inactive
2 | N#CC1=C(N)N(c2ccccc2Sc2ccccc2)C(=O)C1 | inconclusive: 2.2 nM
3 | CCN(CC)c1nc(N)c2c(N)nc3c(c2c1C#N)CC(c1ccccc1)O3 (stereo not drawn) | active: 67 nM
4 | COc1ccc(NC(=O)CSc2nnc(-c3cccs3)n2Cc2ccco2)cc1OC | inconclusive: 1.1 nM
5 | O=C(CSc1ccc2nnc(-c3ccc(F)cc3)n2n1)N1CCCCC1 | inconclusive: 3.2 nM
6 | c1ccc(N2CCN(c3nnc(Cc4cccnc4)c4ccccc34)CC2)nc1 | inactive
7 | COc1ccc(-n2c(=O)c(-c3cccs3)nc3cnc(Oc4ccccc4)nc32)cc1 | inconclusive: 2.2 nM
8 | CCCOC(=O)c1ccc(-c2c(C)noc2-c2ccc(OC)cc2O)o1 | inconclusive: 3.1 nM
9 | O=C(O)c1cc(-c2ccc3cc4c(cc3c2)OCO4)nc2ccccc12 | active: 11 nM
10 | CCN1CCN(C(=O)Nc2cccc(C(F)(F)F)c2)CC1 | inactive
11 | C=C(C)COc1ccc(-c2nc(N)ncc2-c2ccc(OC)cc2)c(O)c1 | inconclusive: 1.6 nM
12 | COCCSc1nnc(NS(=O)(=O)Cc2ccccc2)s1 | inconclusive: 1.3 nM
13 | Nc1c(C(=O)NCCN2CCOCC2)c2nc3ccccc3nc2n1-c1ccccc1 | inconclusive: 1.1 nM
14 | COCCn1c(=O)c(-c2cc(F)cc(F)c2)nc2cnc(N3CCN(C)CC3)nc21 | active: 57 nM
15 | CC(C)(C)c1[nH]nc2c1C(c1ccccc1OC(=O)N1CCOCC1)C(C#N)=C(N)O2 (stereo not drawn) | inconclusive: 6.3 nM
16 | COc1ccc(CN2C(=O)C3C4C=CC(C4)C3C2=O)cc1 (stereo not drawn) | inconclusive: 2 nM
17 | COC(=O)c1cccc(NC(=O)CN2CCC(NC(=O)c3cc(OC)c(OC)c(OC)c3)CC2)c1 | inactive
18 | CCN(CC)CCCn1c(=S)[nH]c2cc(Cl)ccc2c1=O | inconclusive: 4.4 nM
19 | O=C(O)c1c(Br)c(Br)c(Br)c(Br)c1C1c2ccc(O)cc2Oc2cc(O)ccc21 | inconclusive: 4.4 nM
20 | NC(=O)c1c(NC(=O)c2cc3ccccc3o2)sc2c1CCC2 | active: 110 nM

Row | SMILES | max dye-equivalent concentration
21 | NC(=O)c1ccsc1NC(=O)CN1C(=O)C2CC=CCC2C1=O (stereo not drawn) | active: 430 nM
22 | CC1(c2ccccn2)Nc2ccccc2-c2nc3ccccc3n21 (stereo not drawn) | active: 3900 nM
23 | N#Cc1c(-c2ccco2)cc(-c2ccccn2)nc1N | inconclusive: 2.9 nM
24 | O=C(NCc1nc(-c2ccccc2)no1)c1ccc2c(c1)OCO2 | inconclusive: 1.2 nM
25 | Cc1cc(=O)oc(C)c1C(=O)Nc1cccc2nonc12 | active: 11 nM
26 | COc1cccc(Cn2c(=O)c(-c3cc(F)cc(F)c3)nc3cnc(N(C)C)nc32)c1 | inconclusive: 2.7 nM
27 | Nc1c(C(=O)NCC2CCCO2)c2nc3ccccc3nc2n1-c1ccccc1 (stereo not drawn) | active: 4500 nM
28 | Cc1nc(NCc2ccc3c(c2)OCO3)c2oc3ccccc3c2n1 | inactive
29 | CCOc1cc(C(=O)NCc2ccncc2)cc(OCC)c1OCC | inconclusive: 1.1 nM
30 | CC1CCN(c2ccc(NC(=O)c3cccnc3)cc2)CC1 | inactive
31 | N[C@@H](Cc1ccccc1)C(=O)O | inactive
32 | O=C(c1cccn2c(=O)c3cc(Cl)ccc3nc12)N1CCOCC1 | active: 970 nM
33 | O=S(=O)(O)c1ccc2cc(N=Nc3cc(S(=O)(=O)O)c4cccnc4c3O)ccc2c1 | inconclusive: 9.3 nM
34 | CCCC(C(=O)NC1CCCC1)N(CCCN1CCOCC1)C(=O)c1snc(C(N)=O)c1N (stereo not drawn) | active: 120 nM
35 | Cc1cc(N2CCOCC2)nc2ccc(Cc3ccc4nc(N5CCOCC5)cc(C)c4c3)cc12 | active: 29 nM
36 | Cc1cc(NC(=O)c2ccc3nc(-c4ccccc4)c(-c4ccccc4)nc3c2)no1 | active: 85 nM
37 | CC1(C)Cc2c(sc3c2c(=N)n(Cc2ccco2)c(=O)n3CC(=O)Nc2ccc(Cl)cc2)CO1 | inconclusive: 5.9 nM
38 | Cc1cc(C)n(CCc2nc(-c3cc4ccccc4o3)cs2)n1 | inconclusive: 1.7 nM
39 | CCOC(=O)c1c(C)nc2c(C#N)cnn2c1C | inconclusive: 5.3 nM
40 | COc1ccccc1C(CC(=O)Nc1nccs1)c1ccco1 (stereo not drawn) | inconclusive: 2.2 nM

Exported comma-delimited: 2 of the compounds above
Row,SMILES,max dye-equivalent concentration
9,O=C(O)c1cc(-c2ccc3cc4c(cc3c2)OCO4)nc2ccccc12,active: 11 nM
10,CCN1CCN(C(=O)Nc2cccc(C(F)(F)F)c2)CC1,inactive

(cont.)

Row | SMILES | max dye-equivalent concentration
41 | c1ccc(CN2CCN(c3nc(-c4ccccn4)nc4ccccc34)CC2)cc1 | inconclusive: 6.6 nM
42 | CCNc1ncc2nc(-c3cc(F)cc(F)c3)c(=O)n(CCc3ccccc3)c2n1 | active: 14 nM
43 | COc1ccccc1-c1cc(C(=O)NCc2ccccc2)no1 | inactive
44 | Cc1cc(NC(=O)Cn2nc(C(F)(F)F)c3c2CCCC3)no1 | inactive
45 | CCOC(=O)C(C)n1cnc2c(nnn2Cc2ccc(C)cc2)c1=O (stereo not drawn) | inconclusive: 3.2 nM
46 | CC1CCN(Cc2c(C#N)c3ccccc3n2C)CC1 | inconclusive: 1.6 nM
47 | CCOC(=O)N1CCN(C(=O)CN2C(=O)COc3ccc(C(C)(C)C)cc32)CC1 | inconclusive: 1.5 nM
48 | Cc1nn(-c2ccccc2)c2c1C(c1ccco1)C(C#N)=C(N)O2 (stereo not drawn) | inconclusive: 4.5 nM
49 | Cc1cccc(CNc2ccnc(-c3cccc(C#N)c3)n2)c1 | inactive
50 | COC(=O)c1ccccc1OCC(=O)NC1CCCCC1 | inconclusive: 2.3 nM
51 | COCCCNC(=O)Cn1cc(C(=O)C2CC2)c2ccccc21 | inactive
52 | Nc1nc(-c2ccco2)c(-c2ccco2)s1 | inconclusive: 1.4 nM
53 | COc1ccc(-c2cc(C(=O)Nc3cccc(C(C)=O)c3)no2)cc1 | inconclusive: 1.8 nM
54 | FC(F)(F)c1ccccc1-c1nc(N2CCNCC2)c2ccccc2n1 | inactive
55 | CC(OC(=O)C(NC(=O)c1ccco1)C(C)C)C(=O)Nc1ncc(Cl)cc1Cl (stereo not drawn) | inconclusive: 1.3 nM
56 | Cc1oc(-c2nc3ccccc3n2C)cc1C(=O)c1ccccc1 | inactive
57 | CN1CCN(c2ncnc3ccc(-c4ccccc4Cl)cc23)CC1 | inactive
58 | O=C(c1ccc(=O)oc1)N1CCOCC1 | active: 190 nM
